From PubChem BioAssay AID1487 (National Center for Advancing Translational Sciences (NCATS), 2009)
Some of the results follow. Further columns of the screen follow, without active or inactive calls. The list favours compounds with an active or inconclusive main result. The note in brackets gives the kind of curve behind each potency; many fits are weak.

Assay: qHTS Assay for Modulators of Lamin A Splicing
Conditions: HeLa LMNA splicing GFP/RFP minigene ratio, 48 h
Method in brief: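 S3 HeLa cells stably expressing lamin A-EGFP splicing minigene plus DsRed2, 600 cells/well, 48 h compound exposure at 37C. Laser-scanning cytometry; analysed as GFP (500-530 nm)/RFP (575-640 nm) total intensity ratio; 0.5% DMSO vehicle.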

[1] = measured here: GFP splicing reporter channel
[2] = measured here: RFP viability control channel

O=C(Nc1ccncc1)c1ccc2c(c1)OCCO2
AC50 [1]: 0.0794 µM [rising, full curve, poor fit]

CCC(C)NC(=O)CSc1nc2ccccc2c(=O)n1-c1c(C)n(C)n(-c2ccccc2)c1=O (stereo not drawn)
AC50 [2]: 0.178 µM [rising, full curve]

Cc1cc(C)c(C#N)c(SCS(=O)c2ccc(C(C)(C)C)cc2)n1 (stereo not drawn)
AC50 [1]: 0.00447 µM [falling, full curve, poor fit]
AC50 [2]: 0.00355 µM [falling, full curve, poor fit]

COc1ccccc1CC(=O)Nc1ccc2nc(C)sc2c1
AC50 [2]: 35.5 µM [rising, single point]

COCCCn1c(SCc2nnc(-c3ccc(OC)c(OC)c3)o2)nc2ccccc2c1=O
AC50 [2]: 35.5 µM [rising, single point]

Cc1nn(C(=O)c2ccccc2)c(C)c1S(=O)(=O)N1CCCCCC1
AC50 [1]: 0.794 µM [falling, full curve]
AC50 [2]: 0.631 µM [falling, full curve]

COc1cccc(N2CCN(Cc3nc4scc(-c5ccccc5)c4c(=O)[nH]3)CC2)c1
AC50 [2]: 3.98 µM [rising, full curve]

COc1ccc(OCC(=O)Nc2cc(-c3nn(C)c(=O)c4ccccc34)ccc2OC)cc1
AC50 [1]: 3.55 µM [rising, full curve]
AC50 [2]: 6.31 µM [rising, full curve]

COc1ccccc1NC(=O)c1sc2ncn(Cc3ccccc3Cl)c(=O)c2c1C
AC50 [2]: 0.0501 µM [falling, full curve, poor fit]

CO[C@H]1/C=C/O[C@@]2(C)Oc3c(C)c(O)c4c(O)c(c5c(c4c3C2=O)NC2(CCN(CC(C)C)CC2)N=5)=NC(=O)/C(C)=C\C=C\[C@H](C)[C@H](O)[C@@H](C)[C@@H](O)[C@@H](C)[C@H](OC(C)=O)[C@@H]1C
AC50 [2]: 31.6 µM [rising, single point]

O=c1[nH]c(Cc2ccccn2)nc2scc(-c3ccc(Cl)cc3)c12
AC50 [2]: 3.16 µM [rising, partial curve, poor fit]

COc1ccc(NS(=O)(=O)c2ccc(NC(C)=O)cc2)c(OC)c1
AC50 [2]: 0.0708 µM [falling, full curve, poor fit]

CN(Cc1nc(-c2cnccn2)no1)Cc1n[nH]c2c1CCCC2
AC50 [2]: 0.0126 µM [rising, full curve]

O=C(NC(=S)N1CCc2ccccc21)c1ccc(Br)o1
AC50 [2]: 35.5 µM [falling, single point]

Cc1ccc(S(=O)(=O)Oc2ccc(/C=N/NC(=O)c3nn(C)cc3[N+](=O)[O-])cc2)cc1
AC50 [2]: 35.5 µM [rising, single point]

COc1ccc(NC(=S)Nc2ccccn2)c(OC)c1
AC50 [1]: 35.5 µM [falling, single point]
AC50 [2]: 35.5 µM [falling, single point]

CC1=NC(Nc2nc(C)c3ccccc3n2)=NC(C)(C)C1
AC50 [2]: 10 µM [rising, partial curve]

CC1CCCCN1C(=O)c1ccc(COc2ccc([N+](=O)[O-])cc2)o1 (stereo not drawn)
AC50 [2]: 15.8 µM [rising, single point]

CCOc1cc(C)cc2oc(=O)cc(-c3ccccc3)c12
AC50 [1]: 35.5 µM [falling, single point]

Cc1ccc(CNC(=O)COc2ccccc2-c2ccccc2)cc1
AC50 [2]: 35.5 µM [rising, single point]

Cc1cc2cc(CCNC(=O)c3cccs3)c(=O)[nH]c2cc1C
AC50 [2]: 12.6 µM [rising, partial curve]

CC1=NNC(=O)C1CCC(=O)N/N=C/C(Br)=C/c1ccccc1 (stereo not drawn)
AC50 [2]: 25.1 µM [rising, single point]

CCOc1cc(/C=N/NC(=O)OC)ccc1OCCSc1ccc(Cl)cc1
AC50 [1]: 6.31 µM [rising, partial curve]
AC50 [2]: 14.1 µM [rising, partial curve, poor fit]

Cc1ccc(C)c(N2CCN(C(=O)CN3C(=O)c4ccccc4C3=O)CC2)c1
AC50 [1]: 12.6 µM [rising, single point]
AC50 [2]: 31.6 µM [rising, single point]

CC1=C(C(=O)OC(C)C)C(C)C(C(=O)OC(C)C)=C(C)N1
AC50 [2]: 22.4 µM [rising, single point]

COc1ccc(-n2ncc3c(N4CCCCC4)ncnc32)cc1
AC50 [2]: 10 µM [rising, partial curve, poor fit]

COc1ccc(N2C(=O)CCC2=O)c(OC)c1
AC50 [1]: 4.47 µM [rising, partial curve, poor fit]

CC(=O)c1ccc(N2CCN(C(=O)c3ccc(Cn4c(=O)[nH]c5ccccc5c4=O)cc3)CC2)cc1
AC50 [1]: 0.01 µM [falling, full curve, poor fit]

CCOC(=O)C1CCN(C(=O)c2oc3ccc(S(=O)(=O)N4CC(C)CC(C)C4)cc3c2C)CC1 (stereo not drawn)
AC50 [2]: 20 µM [rising, single point]

CC1CCCN(C(=O)c2ccc3c(=O)n(Cc4ccc5c(c4)OCO5)c(=S)[nH]c3c2)C1 (stereo not drawn)
AC50 [1]: 14.1 µM [rising, partial curve]
AC50 [2]: 12.6 µM [rising, partial curve]

CCn1c(/C=C/N(C)c2ccccc2)[n+](CC)c2ccc(Cl)cc21
AC50 [2]: 3.55 µM [rising, single point]

CCC(CC)COC(=O)C(C#N)c1nc2ccccc2nc1N1CCOCC1 (stereo not drawn)
AC50 [1]: 15.8 µM [rising, partial curve, poor fit]
AC50 [2]: 14.1 µM [rising, partial curve]

Cc1ccc(C(=O)NC(c2ccccc2)C(Cl)Cl)cc1 (stereo not drawn)
AC50 [2]: 2.82 µM [rising, partial curve, poor fit]

OCC1(CO)COC(c2ccccc2)=N1
AC50 [1]: 1 µM [rising, full curve]
AC50 [2]: 0.0316 µM [rising, full curve, poor fit]

Clc1ccccc1CSc1ncn(-c2ccccc2)n1
AC50 [1]: 35.5 µM [rising, single point]

Cc1cc(C)c(NC(=O)CCC(=O)N2Cc3ccccc3Oc3ncccc32)c(C)c1
AC50 [1]: 14.1 µM [falling, partial curve]
AC50 [2]: 7.94 µM [falling, partial curve, poor fit]

CCOC(=O)CSC1=NC(=O)/C(=C\c2ccc(Cl)cc2)S1
AC50 [1]: 15.8 µM [falling, partial curve]
AC50 [2]: 22.4 µM [falling, partial curve]

c1ccc(N(c2ccccc2)c2nc(N3CCCC3)nc(-n3ccnc3)n2)cc1
AC50 [1]: 35.5 µM [rising, single point]
AC50 [2]: 35.5 µM [rising, single point]

CCn1c(-c2sc(-c3ccccc3)nc2C)n[nH]c1=S
AC50 [1]: 7.08 µM [rising, partial curve]
AC50 [2]: 3.55 µM [rising, full curve, poor fit]

COc1ccc(Nc2cc(C)c3cc(NC(=O)c4cc(OC)cc(OC)c4)ccc3n2)cc1
AC50 [2]: 31.6 µM [rising, single point]

CCN1C(=O)/C(=c2\s/c(=C3\Sc4ccccc4N3C)c(=O)n2C)N(C)C1=S
AC50 [1]: 1.26 µM [falling, full curve, poor fit]
AC50 [2]: 0.631 µM [falling, full curve]

CCN1C(=O)C(CC(=O)Nc2ccc(OC)cc2)N(CCN2CCOCC2)C1=S (stereo not drawn)
AC50 [1]: 0.355 µM [rising, partial curve, poor fit]

Oc1ccccc1C1OCC2(CO1)COC(c1ccccc1O)OC2 (stereo not drawn)
AC50 [1]: 12.6 µM [falling, single point]

Cc1ccc(-n2cccn2)c(CN2CCC(CO)(CCc3ccccc3)CC2)c1
AC50 [1]: 0.0501 µM [falling, full curve, poor fit]

O=C(COc1ccc(Cl)cc1Cl)NCCCCc1ccccc1
AC50 [2]: 10 µM [falling, partial curve, poor fit]

O=C(Cc1ccccc1)Nc1cccc(C(=O)O)c1O
AC50 [2]: 0.316 µM [falling, full curve]

Cc1ccc(NC(=O)c2ccc(CSc3nccc(C)n3)cc2)cc1
AC50 [2]: 15.8 µM [rising, single point]

Cc1ccsc1/C=C(\C(=O)c1ccc(OC(C)C)cc1)c1nc2ccccc2o1
AC50 [2]: 11.2 µM [rising, partial curve]

Cc1cc(C)c(C#N)c(SCc2nnc(-c3ccccc3)o2)n1
AC50 [1]: 14.1 µM [rising, single point]
AC50 [2]: 35.5 µM [rising, single point]

Cc1nc(N2CCOCC2)c2c(C(=O)N3CCN(c4cccc(C)c4C)CC3)c(C)oc2n1
AC50 [2]: 0.1 µM [rising, full curve, poor fit]

CCOc1ccc(-c2cn3c(n2)sc2cc(C(=O)NC4CCCc5ccccc54)ccc23)cc1 (stereo not drawn)
AC50 [1]: 1.78 µM [rising, partial curve]
AC50 [2]: 11.2 µM [rising, partial curve]

CCOCCn1c(CN2CCC(Cc3ccccc3)CC2)nc2c1c(=O)n(C)c(=O)n2C
AC50 [1]: 8.91 µM [rising, partial curve]
AC50 [2]: 3.16 µM [rising, full curve, poor fit]

Cc1ccc(NC(=O)CC(C)S(=O)(=O)c2ccc3c(c2)NC(=O)CO3)cc1C (stereo not drawn)
AC50 [2]: 8.91 µM [rising, partial curve]

Cc1ccccc1Nc1nc(Nc2ccccc2C)nc(SC2=NCCS2)n1
AC50 [2]: 35.5 µM [rising, single point]

COc1ccc(/C=C/C(=O)c2ccc(O)cc2O)cc1
AC50 [1]: 25.1 µM [falling, single point]
AC50 [2]: 35.5 µM [falling, single point]
